Laboratory results published in PMC12080399.
Numbering of substitutions follows the chain as printed. No constants are given. Whether binding was seen depends on the method and setting. Binding seen in cells or lysates may run through a third protein. Some binding calls cover weakened binding; strength is not graded here. For some of these results: Sequences can lack the tags named with a protein.

The chains behind the UniProt entries cited, without tags or fusion partners. Residues count along the entry.
UniProt B5DFG1, residues 78-580: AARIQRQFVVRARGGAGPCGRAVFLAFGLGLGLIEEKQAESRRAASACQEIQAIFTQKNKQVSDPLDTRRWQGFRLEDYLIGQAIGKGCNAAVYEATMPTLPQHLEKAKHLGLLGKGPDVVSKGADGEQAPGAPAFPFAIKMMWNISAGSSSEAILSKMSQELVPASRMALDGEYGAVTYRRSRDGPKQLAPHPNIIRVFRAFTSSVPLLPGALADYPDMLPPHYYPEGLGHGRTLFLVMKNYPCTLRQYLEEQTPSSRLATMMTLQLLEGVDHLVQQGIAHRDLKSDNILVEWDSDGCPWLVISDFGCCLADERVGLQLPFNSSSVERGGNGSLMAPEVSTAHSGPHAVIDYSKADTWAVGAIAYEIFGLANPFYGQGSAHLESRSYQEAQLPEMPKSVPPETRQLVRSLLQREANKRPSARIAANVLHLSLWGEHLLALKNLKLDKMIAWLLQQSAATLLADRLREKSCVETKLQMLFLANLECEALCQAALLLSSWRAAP
UniProt O00629: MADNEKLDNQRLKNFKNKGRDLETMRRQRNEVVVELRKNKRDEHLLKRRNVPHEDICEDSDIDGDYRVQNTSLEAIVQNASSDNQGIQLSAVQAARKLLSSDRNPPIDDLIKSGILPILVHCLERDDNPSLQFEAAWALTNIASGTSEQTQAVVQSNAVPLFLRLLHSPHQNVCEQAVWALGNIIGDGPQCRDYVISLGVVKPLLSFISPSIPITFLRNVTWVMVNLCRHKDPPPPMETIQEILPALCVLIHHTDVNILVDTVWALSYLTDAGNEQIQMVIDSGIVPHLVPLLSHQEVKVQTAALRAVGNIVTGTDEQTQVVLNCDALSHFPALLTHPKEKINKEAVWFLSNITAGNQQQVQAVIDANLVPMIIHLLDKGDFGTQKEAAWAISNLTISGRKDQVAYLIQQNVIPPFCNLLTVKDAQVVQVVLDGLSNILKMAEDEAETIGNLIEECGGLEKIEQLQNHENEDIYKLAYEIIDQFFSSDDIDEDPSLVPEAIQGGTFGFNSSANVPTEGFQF
UniProt Q9JK66: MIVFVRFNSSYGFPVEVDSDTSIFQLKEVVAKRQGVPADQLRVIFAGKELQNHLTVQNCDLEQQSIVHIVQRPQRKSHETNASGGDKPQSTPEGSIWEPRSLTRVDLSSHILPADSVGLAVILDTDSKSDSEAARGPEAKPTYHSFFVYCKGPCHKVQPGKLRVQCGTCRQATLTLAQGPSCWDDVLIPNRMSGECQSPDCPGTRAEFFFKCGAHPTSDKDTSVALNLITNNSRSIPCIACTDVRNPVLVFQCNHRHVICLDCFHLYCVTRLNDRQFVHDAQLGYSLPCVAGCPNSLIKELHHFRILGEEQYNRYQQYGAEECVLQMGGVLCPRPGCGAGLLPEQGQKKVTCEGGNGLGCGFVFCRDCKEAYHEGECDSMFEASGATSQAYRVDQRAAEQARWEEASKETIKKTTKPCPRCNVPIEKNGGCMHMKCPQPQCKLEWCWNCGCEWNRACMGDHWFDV

Assays:
[1] = target: T1, human Flag-TRMT10C K173Q (M1) (human) (UniProt Q7L0Y3); test: co-IP; anti-FLAG precipitation of WT or mutant Flag-TRMT10C from transfected AC16 and H9c2 cells; normal conditions, hypoxia, hypoxia with CPT1A overexpression; western blot for KPNA2, KPNA3, KPNA4
T1 sequence: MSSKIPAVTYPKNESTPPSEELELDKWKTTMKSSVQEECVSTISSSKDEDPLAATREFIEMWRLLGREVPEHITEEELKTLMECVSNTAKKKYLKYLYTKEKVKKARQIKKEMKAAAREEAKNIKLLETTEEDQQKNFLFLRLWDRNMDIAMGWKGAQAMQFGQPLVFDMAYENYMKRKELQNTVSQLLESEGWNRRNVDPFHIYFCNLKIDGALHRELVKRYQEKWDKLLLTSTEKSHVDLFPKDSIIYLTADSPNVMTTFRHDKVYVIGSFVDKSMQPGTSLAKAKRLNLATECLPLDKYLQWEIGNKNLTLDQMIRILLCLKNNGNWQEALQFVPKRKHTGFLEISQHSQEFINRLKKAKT

[2] = target: T2, human Flag-TRMT10C K325Q (M2) (human) (UniProt Q7L0Y3); test: as above
T2 sequence: T1 sequence with Q134K, K286Q

[3] = target: T3, human Flag-TRMT10C K173Q and K325Q (M3) (human) (UniProt Q7L0Y3); test: as above
T3 sequence: T1 sequence with K286Q

[4] = target: PINK1 (H9c2 cells) (rat (endogenous in H9c2)) (UniProt B5DFG1); test: co-IP; anti-PINK1 precipitation from AC16 and H9c2 lysates; hypoxia, with TAFAZZIN and/or NLRX1 overexpression or TRMT10C knockdown; western blot for Parkin

binding [1]	binding [2]	binding [3]	binding [4]	Substance
binds	binds	binds	–	KPNA4 (AC16 cells) (from UniProt O00629 1-521)
–	–	–	binds	Parkin (H9c2 cells) (from UniProt Q9JK66 1-465)
